Experimental data as given in patent publication US20090232838A1 (priority 2005, published 2009).

Test: general procedure: Fmoc solid-phase peptide synthesis; Rink Amide MBHA resin (Novabiochem, 0.66 mmol/g); Wang resin if C-terminal OH; HBTU/HOBT in DMF
Settings: whole synthesis, analytical HPLC, scale of the general procedure 1.00 mmol, 0.3 mmol

For “Ac-c(Cys-Glu-His-D-2-Nal-Arg-Trp-Ala-Cys)-Pro-Pro-Lys-Asp-β-Ala-Tyr-Gly-Arg-Lys-Lys-Arg-Arg-Arg-Arg-Gln-Arg-NH2”, the “purity (crude or final not stated)” value was 99.0%.
With “Ac-c(Cys-Glu-His-D-2-Nal-Arg-Trp-Ala-Cys)-Pro-Pro-Lys-Asp-β-Ala-Tyr-Gly-Arg-Lys-Lys-Arg-Arg-Gln-Arg-Arg-Arg-NH2” the “purity (crude or final not stated)” value was 99.2%.
In the case of “Ac-c(Cys-Glu-His-D-2-Nal-Arg-Trp-Ala-Cys)-Pro-Pro-Lys-Asp-β-Ala-Tyr-Gly-Arg-Lys-Lys-Arg-Gln-Arg-Arg-Arg-Arg-NH2”, the “purity (crude or final not stated)” value is reported as 99.0%.
With “Ac-c(Cys-Glu-His-D-2-Nal-Arg-Trp-Ala-Cys)-Pro-Pro-Lys-Asp-β-Ala-Tyr-Gly-Arg-Lys-Lys-Gln-Arg-Arg-Arg-Arg-Arg-NH2” the “purity (crude or final not stated)” value was 99.0%.
With “Ac-c(Cys-Glu-His-D-2-Nal-Arg-Trp-Gly-Cys)-Pro-Pro-Lys-Asp-Doc-Tyr-Gly-Arg-Lys-Lys-Arg-Arg-Gln-Arg-Arg-Arg-NH2” the “purity (crude or final not stated)” value was 97.3%.
With “Ac-c(Cys-Glu-His-D-2-Nal-Arg-Trp-Gly-Cys)-Pro-Pro-Lys-Asp-Tyr-Gly-Arg-Lys-Lys-Arg-Arg-Gln-Arg-Arg-Arg-NH2” the “purity (crude or final not stated)” value was 99.9%.
In the case of “Nle-c(Asp-His-D-2-Nal-Arg-Trp-Lys)-β-Ala-Tyr-Gly-Arg-Lys-Lys-Arg-Arg-Gln-Arg-Arg-Arg-NH2”, the “purity (crude or final not stated)” value is reported as 99%.
In the case of “Tyr-Gly-Arg-Lys-Lys-Arg-Arg-Gln-Arg-Arg-Arg-Doc-Nle-c(Asp-His-D-2-Nal-Arg-Trp-Lys)-NH2”, the “purity (crude or final not stated)” value is reported as 99%.
In the case of “Tyr-Gly-Arg-Lys-Lys-Arg-Arg-Gln-Arg-Arg-Arg-Nle-c(Asp-His-D-2-Nal-Arg-Trp-Lys)-NH2”, the “purity (crude or final not stated)” value is reported as 99%.
